Values from PubChem BioAssay AID1259254 (NCATS, 2017).
Aim: 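Genome-wide screen for genes that prevent DNA re-replication in cancer cells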 (primary screen). Cells: human HCT116 colorectal cancer cells. Knock-down reagent: single siRNA against human genes. Time to read-out: 3 days. Read-out: 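Imaged Hoechst DNA stain sorts each cell into a cycle phase by DNA amount; per plate, G2 fraction set to 0% for non-targeting and 100% for GMNN siRNA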. Direction: G2 robust z-score and G2 cells, % of GMNN control: higher = more G2 cells, more excess DNA replication. Call rule: 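An siRNA counts as active if its G2 robust z-score lies at least 5 MADs above the screen median; here such calls match roughly 38% of GMNN control or more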.
Shown is one part, drawn at random, of about 59,000 reagents tested. About 1,550 of them (2.6%) were called active. 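G2 share is only a proxy for re-replication; each gene was hit by three separate siRNAs, and active genes were retested.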 A number with no mark means an inactive call. The numbers tell different reagents against one gene apart. Further read-outs or replicates are left out here. Not given: the amount of reagent.

The opening 2 entries as a preview:
no.	Gene	siRNA no.	G2 robust z-score	G2 cells, % of GMNN control
1	RAB8B	1	0.515	6.59
2	RAB8B	2	1.17	11.2

Main list, from the start:
no.	Gene	siRNA no.	G2 robust z-score	G2 cells, % of GMNN control
1	RAB8B	1	0.515	6.59
2	RAB8B	2	1.17	11.2
3	RAB8B	3	1.04	10.3
4	TDRD12	1	-0.257	1.16
5	TDRD12	2	1.92	16.5
6	TDRD12	3	0.0179	3.09
7	TRAF3IP2	1	-0.466	-0.308
8	TRAF3IP2	2	0.623	7.35
9	TRAF3IP2	3	1.35	12.5
10	ARHGAP40	1	0.169	4.16
11	ARHGAP40	2	-0.772	-2.47
12	ARHGAP40	3	-0.216	1.45
13	CCS	1	0.695	7.86
14	CCS	2	-0.816	-2.77
15	CCS	3	-0.193	1.61
16	RPLP1P3	1	-0.811	-2.74
17	RPLP1P3	2	1.26	11.9
18	RPLP1P3	3	0.314	5.18
19	WDR20	1	0.45	6.13
20	WDR20	2	1.15	11.1
21	WDR20	3	-0.715	-2.06
22	MDFIC	1	1.56	14
23	MDFIC	2	0.197	4.36
24	MDFIC	3	1.15	11
25	CHD5	1	-0.267	1.09
26	CHD5	2	5 (active)	38.1
27	CHD5	3	1.77	15.4
28	POLD4	1	0.1	3.67
29	POLD4	2	0.617	7.31
30	POLD4	3	-0.641	-1.54
